Experimental data: the supplement of paper PMC3334620
Whole data set: some 33,000 sequences, median “E-score (-0.5 to 0.5)” near -0.016, cut for the highest 2% near 0.3. This is one part of the list.

target: T1, Yer184c (UniProt P39961); test: PBM E-score (8-mer binding enrichment) (E-score (-0.5 to 0.5)); higher = stronger / more preferred TF binding; settings: protein concentration: 100 nM; construct: GST-full length
T1 sequence: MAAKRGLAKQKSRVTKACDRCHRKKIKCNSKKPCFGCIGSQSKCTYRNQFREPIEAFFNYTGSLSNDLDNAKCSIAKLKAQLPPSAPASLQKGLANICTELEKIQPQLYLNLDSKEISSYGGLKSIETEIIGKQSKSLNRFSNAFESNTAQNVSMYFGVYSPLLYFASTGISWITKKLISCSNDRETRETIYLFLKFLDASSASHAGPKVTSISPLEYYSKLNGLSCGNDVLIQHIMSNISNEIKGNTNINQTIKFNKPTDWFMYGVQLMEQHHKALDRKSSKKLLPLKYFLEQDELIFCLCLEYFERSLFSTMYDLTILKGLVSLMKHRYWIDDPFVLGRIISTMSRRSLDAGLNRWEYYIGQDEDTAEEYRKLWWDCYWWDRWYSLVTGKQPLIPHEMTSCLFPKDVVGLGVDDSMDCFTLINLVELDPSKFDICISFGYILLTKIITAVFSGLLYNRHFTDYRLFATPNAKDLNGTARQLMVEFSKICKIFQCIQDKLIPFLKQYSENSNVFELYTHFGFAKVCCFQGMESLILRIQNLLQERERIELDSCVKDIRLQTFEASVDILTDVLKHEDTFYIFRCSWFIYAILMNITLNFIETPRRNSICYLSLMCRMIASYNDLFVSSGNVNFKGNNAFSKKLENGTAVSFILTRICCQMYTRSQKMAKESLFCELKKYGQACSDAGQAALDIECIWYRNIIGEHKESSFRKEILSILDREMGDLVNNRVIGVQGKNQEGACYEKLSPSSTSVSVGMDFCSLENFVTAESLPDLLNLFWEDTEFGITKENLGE
Procedure: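 Universal 'all 10-mer' protein binding microarrays (Agilent AMADID 015681) probed with GST-tagged S. cerevisiae TFs (full-length or DBD) made by in vitro transcription/translation (PURExpress), about 100-200 nM. Bound TF was detected with fluorescent anti-GST. Each ungapped 8-mer (which stands for itself and its reverse complement) is scored by the PBM enrichment score (E-score), a modified Wilcoxon-Mann-Whitney statistic from -0.5 to +0.5, computed with the Universal PBM Analysis Suite. Scale: above 0.35 generally sequence-specific binding.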

Sequence | PBM E-score
ACTTTATG | 0.0373
GATGCCAA | -0.105
CGTGCTCA | 0.091
CCACGACG | 0.0318
ACAACAGA | -0.0576
CGTACTTC | 0.0247
ATAGGCAG | 0.0342
TACCCGAA | 0.152
CGCACCTA | -0.0756
ACATATCG | -0.136
GAGGTTCA | 0.112
CATTTCTC | 0.00217
TGAGAAAA | 0.0785
GCACTGCC | -0.0143
AACCCCCA | -0.269
AAACCGAT | 0.0874
CAGCGGCC | -0.0548
CGTTATAG | -0.00732
ATGTGGTG | 0.0296
GCGGCTCA | 0.2
CCCTGCGC | -0.231
AAACTATG | -0.141
ACGTTAAA | 0.12
TCGTGTCA | -0.0881
ACTGATTA | 0.00495

2 entries from above, field by field.
CGTACTTC
  PBM E-score = 0.0247
GAGGTTCA
  PBM E-score = 0.112

Going on with the list.

Sequence | PBM E-score
CGTTAAAG | 0.0703
CGTGCTTC | 0.102
CCACGTAG | -0.379
AAGACCAA | 0.052
AAGGGGCG | -0.4
GCGCTTCA | -0.0076
GAGACTGC | -0.127
ATCACCCC | -0.149
AACTTATC | 0.11
GCGCGTCC | -0.061
AGCCCAGA | -0.174
CTAAAAAC | -0.00322
CCTAGCCG | 0.155
AGGATCCT | 0.0958
CTGTACAG | 0.0889
CTTTGGGA | -0.0679
CGAAGCTA | 0.1
GCAACAAA | 0.185
CCGACAGA | 0.265
CGCCTCTA | -0.0607
CCCCACAA | -0.0876
ACATTACG | 0.0913
ATGCTTGC | -0.085
ACGACCAC | -0.0916
AGAGGCGC | -0.119

Reformatted: entries from further up.
Sequence,PBM E-score
CTAAAAAC,-0.00322
CCTAGCCG,0.155
AGGATCCT,0.0958
CTGTACAG,0.0889
CTTTGGGA,-0.0679
CGAAGCTA,0.1

Continuation.

Sequence | PBM E-score
GGCTAGAA | 0.124
ACGCCCCT | -0.366
AGAGTGAA | 0.127
CGGCGCCC | 0.125
GAGCTCAA | 0.222
ATCGGGGA | -0.105
AGCGGATA | 0.0602
CGGCTCTC | -0.0248
CTAACAAG | 0.0319
ACGTTCCT | 0.0367
GGAATACA | 0.158
ACCAAGAG | -0.166
ATGTTAAG | 0.0135
ACGAGCTA | -0.0123
GAAATCCC | -0.0142
GGTCTGGA | -0.132
CTTCCACA | 0.0409
ATCGCCAC | -0.162
AGGATTAC | 0.012
CCTAAAAC | -0.106
TACTCATA | -0.0379
CAGGCGCC | -0.0332
GCCATAAC | -0.109
AAGCGCAC | -0.175
CTTGATAC | -0.0505

Sequence | PBM E-score
GAGCACTC | -0.0845
GGACACCA | -0.0551
AACATCTC | 0.0243
GCTCCAAC | -0.0068
GTAACCTA | 0.188
ACGATCAG | -0.113
CTGAGCCA | -0.257
TGAAAGCA | 0.0124
AACGAAAC | 0.0384
GGGCCCTA | -0.145
GGCGTCAC | -0.2
AAACTTTG | 0.184
CAACTAAA | 0.0514
AACGAGTT | -0.0437
CCCATTGA | -0.134
GCCATCAC | -0.171
ATGTATGA | 0.0211
GCACTCTA | -0.12
CGAGGCTA | 0.0172
CAAGTAAC | -0.0721
CAACCAGA | -0.0522
AGCCTTGG | -0.239
CCCAGAAG | -0.00752
AACTAGTA | -0.0163
AGAATACT | 0.147

Sequence | PBM E-score
AAGTGTCC | 0.054
ACATAGGG | -0.274
GCTTTACA | 0.118
CGGATCAG | 0.224
GATAAACA | 0.104
CAACATCG | 0.0608
ACGGGTAT | 0.105
GGCAACTA | 0.102
AGTCAAAC | -0.0777
GCAAACAA | 0.131
AATTCGGA | 0.343
CTCGTTAA | -0.0488
GGCGTCCA | -0.109
CAACGTTG | 0.243
ATCTTTGC | 0.17
ACGTTTAA | 0.0701
CCCTCGAA | -0.337
GCAACTTA | 0.17
GTGCTAAA | 0.0711
ACCACTAC | -0.213
CATAGCCG | 0.298
AATGACCA | 0.0991
CGTGCACA | -0.147
AGTTCGAC | 0.0229
TCGGAAAA | 0.382

Sequence | PBM E-score
GCTCCGCA | 0.0792
ATGCATTC | 0.124
AGCCAACG | 0.0356
AGCGAACT | -0.2
GACATATC | 0.0297
CAGAACAA | 0.209
CCTCGAGC | -0.0425
CCCAGGAG | -0.333
CCAGGGCA | -0.272
ACGGGATA | 0.101
ATAAGGTC | -0.0447
AGTACTTA | -0.0328
GCATGACC | -0.175
GACCGTCA | -0.0487
TATGAATA | 0.0415
AGTACCTA | -0.0132
GTAAACAC | 0.156
AGTTAACA | 0.233
CACTTTCA | -0.0416
ATAGGGCA | -0.168
CCATACCG | -0.0159
AACAGCAT | -0.0933
ATGCCACA | -0.0312
GGAGGTAC | -0.191
CCCCATTC | -0.195

Sequence | PBM E-score
GAAACTGC | -0.0125
CGAGTTCC | 0.115
TAATCATA | 0.157
CCACCAGC | -0.108
GACGCCGA | 0.198
GCCGGGAC | 0.263
AGGAGCGG | -0.269
AAGGCCAC | -0.302
ACCAATAC | -0.112
TTAACAAA | 0.25
CGATACAA | 0.113
AGAGAGCA | -0.127
CACAAATA | 0.265
GCGTCGCA | -0.0328
AGGGTGCG | -0.222
CCGCGCGG | 0.386
CGGGTCCA | -0.171
ACAATACA | 0.108
GCCCGCTA | -0.0914
CGAATTAC | 0.145
TGATGACA | -0.0581
TCCCGCGA | 0.0597

Individual results from the results shown.
CGGGTCCA – PBM E-score: -0.171
GACGCCGA – PBM E-score: 0.198
CGAATTAC – PBM E-score: 0.145
CGAGTTCC – PBM E-score: 0.115
CCGCGCGG – PBM E-score: 0.386
